Data from patent US20240400689A1.
These are yes or no findings as the source states them, for the method shown. Some results given as binding are weak or reduced against the parent protein; the word gives no strength.

By UniProt entry, the sequences of proteins in these tests, tags left out. Residues count along the entry.
UniProt Q5ZPR3, residues 29-534: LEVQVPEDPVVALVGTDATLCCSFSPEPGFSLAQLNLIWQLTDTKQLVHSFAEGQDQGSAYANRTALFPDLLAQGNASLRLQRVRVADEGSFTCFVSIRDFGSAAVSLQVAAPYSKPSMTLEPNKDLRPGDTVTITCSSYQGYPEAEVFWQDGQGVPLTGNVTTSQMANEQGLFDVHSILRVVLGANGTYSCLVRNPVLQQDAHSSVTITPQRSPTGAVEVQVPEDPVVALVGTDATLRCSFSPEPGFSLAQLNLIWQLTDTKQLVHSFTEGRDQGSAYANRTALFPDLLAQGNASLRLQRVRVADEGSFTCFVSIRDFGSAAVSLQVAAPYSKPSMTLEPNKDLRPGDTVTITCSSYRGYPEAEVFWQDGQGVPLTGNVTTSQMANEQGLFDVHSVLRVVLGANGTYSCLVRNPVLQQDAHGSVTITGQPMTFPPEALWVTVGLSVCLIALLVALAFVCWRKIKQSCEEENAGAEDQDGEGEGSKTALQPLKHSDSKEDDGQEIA

Target: human CD276 protein (human) (UniProt Q5ZPR3)
Test: FACS on CHO-S-hCD276 cells

B1: 4-D5-B9-B11 (antibody, V domains shown)
VH: EIGGLVKPGGSLKFSCAASGFTFSSYAMSWVRQTPEKRLEWVATISGGGIYYPDSVKGRFTISRDNAKNTLYLQMSSLRSEDTAMYYCARQGSKGWDAMDYWGQGTSVTVSS
VL: QIVLTQSPAIMSASPGEKVTMTCRASSSVSFMHWYQQKSGTSPKRWIYETSKLASGVPDRFSGSGSGTSYSLTISSMEAEDAATYYCQQWSSNPLTFGAGTKLELK
  binding: binds
